Test results published in article PMC4627230, “Identification of TAX2 peptide as a new unpredicted anti-cancer agent” (Oncotarget, 2015).
These are yes or no findings as the source states them, for the method shown. Binding seen in cells or lysates may run through a third protein. Some results given as binding are weak or reduced against the parent protein; the word gives no strength.

Sequences of proteins named here, by UniProt entry; tags and fusion partners are left off. Residues count along the entry.
UniProt P16671: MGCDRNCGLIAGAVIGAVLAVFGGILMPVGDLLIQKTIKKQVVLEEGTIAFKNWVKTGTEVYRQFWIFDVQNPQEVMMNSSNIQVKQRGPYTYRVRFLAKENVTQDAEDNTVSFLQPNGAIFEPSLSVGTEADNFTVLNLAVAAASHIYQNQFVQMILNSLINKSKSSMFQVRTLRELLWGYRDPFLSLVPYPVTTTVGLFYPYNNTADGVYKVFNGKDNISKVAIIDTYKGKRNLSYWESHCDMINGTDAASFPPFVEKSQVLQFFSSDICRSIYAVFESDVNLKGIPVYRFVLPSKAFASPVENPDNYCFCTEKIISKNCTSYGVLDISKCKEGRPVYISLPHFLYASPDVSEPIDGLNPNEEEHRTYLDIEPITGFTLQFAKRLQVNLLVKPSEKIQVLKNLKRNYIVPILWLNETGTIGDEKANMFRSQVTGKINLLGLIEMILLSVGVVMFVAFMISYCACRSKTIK
UniProt Q08722, residues 19-323: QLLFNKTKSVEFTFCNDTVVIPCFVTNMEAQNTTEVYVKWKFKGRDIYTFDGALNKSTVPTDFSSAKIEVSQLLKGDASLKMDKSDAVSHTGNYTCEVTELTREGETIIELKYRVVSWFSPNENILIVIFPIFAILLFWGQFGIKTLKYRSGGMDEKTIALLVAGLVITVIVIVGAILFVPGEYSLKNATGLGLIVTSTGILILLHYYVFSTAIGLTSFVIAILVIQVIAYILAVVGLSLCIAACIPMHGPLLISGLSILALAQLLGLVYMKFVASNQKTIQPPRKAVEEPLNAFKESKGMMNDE
UniProt P05556: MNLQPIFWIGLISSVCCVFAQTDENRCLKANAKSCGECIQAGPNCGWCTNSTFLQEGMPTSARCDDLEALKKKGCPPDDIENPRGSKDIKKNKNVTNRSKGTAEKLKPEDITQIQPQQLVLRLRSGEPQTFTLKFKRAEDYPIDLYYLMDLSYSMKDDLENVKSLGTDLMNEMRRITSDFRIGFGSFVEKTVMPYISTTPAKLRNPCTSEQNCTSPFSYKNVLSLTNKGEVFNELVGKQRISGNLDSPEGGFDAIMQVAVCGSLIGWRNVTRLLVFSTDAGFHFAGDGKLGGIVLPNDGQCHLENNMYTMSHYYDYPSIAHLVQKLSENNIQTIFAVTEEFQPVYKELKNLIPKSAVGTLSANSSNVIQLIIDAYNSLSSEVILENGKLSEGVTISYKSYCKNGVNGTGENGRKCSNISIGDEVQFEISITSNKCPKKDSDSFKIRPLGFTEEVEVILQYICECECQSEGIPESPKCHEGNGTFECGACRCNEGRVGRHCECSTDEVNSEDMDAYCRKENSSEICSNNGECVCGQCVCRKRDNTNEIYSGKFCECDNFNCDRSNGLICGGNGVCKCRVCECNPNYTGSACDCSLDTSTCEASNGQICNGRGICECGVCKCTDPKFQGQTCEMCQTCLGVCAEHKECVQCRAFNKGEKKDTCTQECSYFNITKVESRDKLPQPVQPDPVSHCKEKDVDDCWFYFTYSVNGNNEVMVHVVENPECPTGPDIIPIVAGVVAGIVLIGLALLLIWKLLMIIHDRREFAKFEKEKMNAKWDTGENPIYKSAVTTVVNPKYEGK
UniProt P35968, residues 20-1356: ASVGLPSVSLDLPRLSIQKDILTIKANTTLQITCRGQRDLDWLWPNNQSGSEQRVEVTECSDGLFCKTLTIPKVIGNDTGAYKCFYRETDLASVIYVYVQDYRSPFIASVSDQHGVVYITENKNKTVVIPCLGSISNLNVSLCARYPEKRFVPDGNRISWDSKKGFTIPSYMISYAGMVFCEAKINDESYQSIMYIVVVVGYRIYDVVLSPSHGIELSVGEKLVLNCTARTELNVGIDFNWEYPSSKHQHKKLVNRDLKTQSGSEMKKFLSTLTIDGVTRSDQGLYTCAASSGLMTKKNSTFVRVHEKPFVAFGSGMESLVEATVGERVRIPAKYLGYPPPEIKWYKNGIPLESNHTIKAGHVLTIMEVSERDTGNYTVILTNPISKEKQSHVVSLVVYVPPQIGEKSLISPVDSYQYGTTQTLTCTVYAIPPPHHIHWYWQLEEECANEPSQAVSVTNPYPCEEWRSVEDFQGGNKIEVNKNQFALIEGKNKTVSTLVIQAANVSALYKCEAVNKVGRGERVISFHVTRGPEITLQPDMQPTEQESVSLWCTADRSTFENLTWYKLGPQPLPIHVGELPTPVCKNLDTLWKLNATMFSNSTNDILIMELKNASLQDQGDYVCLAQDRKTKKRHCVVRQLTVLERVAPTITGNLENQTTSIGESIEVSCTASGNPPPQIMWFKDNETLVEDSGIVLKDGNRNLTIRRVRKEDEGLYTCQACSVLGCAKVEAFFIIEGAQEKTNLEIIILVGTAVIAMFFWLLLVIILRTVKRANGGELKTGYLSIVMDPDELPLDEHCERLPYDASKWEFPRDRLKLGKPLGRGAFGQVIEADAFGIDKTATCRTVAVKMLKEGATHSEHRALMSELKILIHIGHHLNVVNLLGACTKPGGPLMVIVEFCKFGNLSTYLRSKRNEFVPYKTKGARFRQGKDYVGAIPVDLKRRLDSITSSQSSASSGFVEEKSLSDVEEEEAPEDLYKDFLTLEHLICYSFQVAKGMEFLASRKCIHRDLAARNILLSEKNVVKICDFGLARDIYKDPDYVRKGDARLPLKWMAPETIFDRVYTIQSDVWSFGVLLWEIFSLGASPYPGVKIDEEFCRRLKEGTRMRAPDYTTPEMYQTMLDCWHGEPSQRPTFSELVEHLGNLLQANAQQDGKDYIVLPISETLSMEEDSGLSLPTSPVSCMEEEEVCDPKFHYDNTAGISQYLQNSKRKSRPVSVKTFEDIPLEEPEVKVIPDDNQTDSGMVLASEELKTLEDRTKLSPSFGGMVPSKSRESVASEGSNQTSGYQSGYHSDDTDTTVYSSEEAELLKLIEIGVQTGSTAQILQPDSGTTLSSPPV
UniProt P07996, residues 19-1170: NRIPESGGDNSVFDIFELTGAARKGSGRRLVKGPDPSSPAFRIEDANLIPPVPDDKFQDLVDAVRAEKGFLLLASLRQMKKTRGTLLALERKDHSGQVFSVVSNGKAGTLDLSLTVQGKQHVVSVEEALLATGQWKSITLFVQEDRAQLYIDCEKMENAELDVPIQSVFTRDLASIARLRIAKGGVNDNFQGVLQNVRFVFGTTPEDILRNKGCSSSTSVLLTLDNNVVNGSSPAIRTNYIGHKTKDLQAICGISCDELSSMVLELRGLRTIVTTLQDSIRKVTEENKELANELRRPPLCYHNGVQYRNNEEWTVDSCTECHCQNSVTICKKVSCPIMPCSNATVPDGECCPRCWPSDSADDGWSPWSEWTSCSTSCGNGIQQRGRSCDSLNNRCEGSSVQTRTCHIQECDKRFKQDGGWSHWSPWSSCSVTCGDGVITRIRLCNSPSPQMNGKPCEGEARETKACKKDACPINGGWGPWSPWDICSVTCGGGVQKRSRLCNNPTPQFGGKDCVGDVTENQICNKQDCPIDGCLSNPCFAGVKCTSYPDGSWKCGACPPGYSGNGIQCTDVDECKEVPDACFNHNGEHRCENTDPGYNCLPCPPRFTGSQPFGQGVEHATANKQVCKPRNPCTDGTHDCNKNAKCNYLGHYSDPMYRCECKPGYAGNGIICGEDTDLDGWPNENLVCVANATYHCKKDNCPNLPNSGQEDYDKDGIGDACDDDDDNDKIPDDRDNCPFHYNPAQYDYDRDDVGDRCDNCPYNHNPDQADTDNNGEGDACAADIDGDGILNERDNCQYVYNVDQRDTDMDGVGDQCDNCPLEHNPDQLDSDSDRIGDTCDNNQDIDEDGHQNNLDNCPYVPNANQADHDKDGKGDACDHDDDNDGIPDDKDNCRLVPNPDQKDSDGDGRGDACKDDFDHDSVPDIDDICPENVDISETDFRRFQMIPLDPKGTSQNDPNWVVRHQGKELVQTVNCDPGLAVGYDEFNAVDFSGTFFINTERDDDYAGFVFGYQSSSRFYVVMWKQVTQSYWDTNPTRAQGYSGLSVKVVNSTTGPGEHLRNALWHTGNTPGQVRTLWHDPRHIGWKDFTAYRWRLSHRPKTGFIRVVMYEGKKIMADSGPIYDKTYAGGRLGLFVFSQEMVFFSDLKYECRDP

Tests used:
Assay in all cases: co-IP; antibody (anti-CD47 B6H12, anti-CD36, anti-FGF2, anti-VEGF, anti-β1 integrin, anti-LRP1 heavy chain) covalently coupled to resin (Pierce Co-IP kit), incubated with whole HUVEC protein lysate (or conditioned media) overnight at 4°C, no cross-linker; cells treated with 100 μM TAX2 or control peptide; for VEGFR2 also 30 ng/mL VEGF for 5 min; immunoblot
[1] = target: CD36, endogenous in HUVECs (human (endogenous in HUVECs)) (UniProt P16671)
[2] = target: CD47, endogenous in HUVECs (human (endogenous in HUVECs)) (UniProt Q08722)
[3] = target: β1 integrin, endogenous in HUVECs (human (endogenous in HUVECs)) (UniProt P05556)

| binding [1] | binding [2] | binding [3] | Substance |
| --- | --- | --- | --- |
| binds |  |  | VEGFR2 (vascular endothelial growth factor receptor 2), activated, endogenous in HUVECs (from UniProt P35968 20-1356) |
|  | binds | binds | thrombospondin-1 (TSP-1), endogenous in HUVECs (from UniProt P07996 19-1170) |
